Source: ChEMBL document CHEMBL3988442, “University of Dundee, Small-Polar-MMV Screening Library” (2021).

Mtb glucose medium: 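Growth of Mycobacterium tuberculosis over 3 days (7H9 medium with glucose and tyloxapol); the read-out is not stated. Compounds at 50 µM. The record gives no direction; compounds that gave an IC50 in retests scored well above the rest, so higher reads as more growth inhibition. Of about 69,000 compounds tested this way, about 760 (1.1%) reached 50% or more in at least one test.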
Mtb cholesterol medium: 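Phenotypic screen: M. tuberculosis growth, cholesterol and DPPC medium, 4 days; the read-out is not stated. Tested at 50 µM. The record gives no direction; compounds that gave an IC50 in retests scored well above the rest, so higher reads as more growth inhibition. Of about 69,000 compounds tested this way, about 370 (0.54%) reached 50% or more in at least one test.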

Values are the deposited “Percent Effect”, in %.
The controls that fix the scale are not given in the record; negative values are as filed.
Compounds were drawn at random from those tested, without regard to their results.
Two or more numbers in one place are separate tests of the same structure; such repeats can differ widely.

structure	Mtb glucose medium	Mtb cholesterol medium
CC1CC2(CCN(C(=O)c3c[nH]cn3)CC2)c2ccccc21 (stereo not given)	-9.034	-12.06
Cc1cnc2c(c1NCc1ccc3c(c1)OCO3)c(=O)n(C)c(=O)n2C	-55.24	-50.05
CC(c1nc(C2CC2)no1)N1CCN(Cc2cccc(C#N)c2)CC1 (stereo not given)	0.9517	-6.069
CC1CN(C)c2ccccc2CN1C(=O)c1cnsn1 (stereo not given)	-12.8	-1.594 & -7.73
NC(=O)C1(CCCc2ccncc2)CCCN1 (stereo not given)	-3.65	-6.88
COCCN(Cc1cnn(C)c1)c1nc(C)nc2sccc12	-15.18 & 1.154	-6.721 & 2.547
CC(=O)c1c(O)ccnc1C(F)(F)F	15.32	10.14
Cn1cc(C(=O)NCc2cn3c(n2)CN(CC2CCCC2)CC3)cn1.O=C(O)C(F)(F)F.O=C(O)C(F)(F)F	-6.033	2.668
CCCS(=O)(=O)N(C)C(=O)CCc1ccccc1	28.98	7.921 & 9.202
CN1CCN(CCCN(C)S(=O)(=O)CC2CCCCC2)CC1	3.105 & 20.1	5.957 & -2.958
CCOc1ccccc1CN1CCc2nc3ccsc3c(=O)n2CC1.Cl	27.94	-2.728
CN(CC(N)=O)Cc1cc(Cl)cc2cccnc12	-0.4266 & -10.64	4.536
CN(Cc1cc(Br)cn1C)C(=O)c1cc(Cl)ccn1	21.5	-24.57
CNC(=O)c1cn2cc(-c3cccc(Cl)c3)n(CC3CC3)c(=O)c2n1	-10.77 & 4.585	-5.302
[H][C@]12CC[C@]([H])(CN(c3ncccn3)C1)N(C(=O)c1cc(F)ccc1OC)C2	-2.573	-5.076 & -4.655
CCN(CC)C(=O)N1CCN(C2=NCC(C)S2)CC1 (stereo not given)	17.71	14.03
CN(C)CCn1ccc2ccc(NC(=O)c3ccncc3F)cc21	-23.7	-12.96
Cc1cnc(C)c(N2CCCC(CO)(Cc3cccc(Cl)c3)C2)n1 (stereo not given)	23.02	-20.7
Cn1ccnc1SCC(=O)NCCC1CCCO1 (stereo not given)	11.59	5.102
O=C1CN(C(=O)C2CCCCC2)CC(O)CN1Cc1ccc(Cl)cc1 (stereo not given)	14.55	5.501
CCOc1ccc(CN(CCOC)c2nc(C)nc3oc(C)nc23)cc1	2.233	-12.2
COc1c(CNCc2ccnc(N3CCCCC3)c2)c(C)nn1C	16.04	-21.48
Cc1nn(C)c2ncc(S(=O)(=O)N3CCN4CCCC4C3)cc12 (stereo not given)	7.777	5.247
CCc1ncc(CN[C@@H]2CCCN(C(C)=O)[C@H]2c2ccc(C)s2)cn1.Cl	45.11	4.111
NC(c1ccccc1)c1ccc(OC(F)F)cc1 (stereo not given)	0.03766 & -14.24	8.722
Cc1c(CNC(=O)C2CCCCCN2C)oc2ccccc12 (stereo not given)	-9.168	4.979
CNC(=O)[C@@H](c1ccccc1F)N1CCC[C@H]1C(=O)NC1CCCC1.Cl	14.97 & -5.598	18.15
CCSCCC(=O)N1CCc2[nH]nc(COc3ccccc3)c2C1	-9.581	-21.64
c1ccc(CCN2CCN(c3ccc4nncn4n3)CC2)cc1	50.05	17.9
CC(C)c1nnc(CNCC2CCCN2c2cccnn2)o1 (stereo not given)	3.199	5.04 & -5.43
O=C(O)C(F)(F)F.[H][C@@]12CCN(C(=O)c3cscn3)[C@@]1([H])CCN2CC1CCOC1 (stereo not given in full)	15.89	4.185
CN(Cc1ccc(F)cc1)Cc1nc(-c2cnccn2)no1	26.12	21.44
CCn1cc(CN(C)Cc2cnn(-c3ccc(F)cc3)c2)cn1	-20.18	-34.07
Cn1ccnc1CNC(=O)N1CCCC(Cc2nccn2C)C1 (stereo not given)	-10.12	-4.456 & -18.34
Cc1ccc(SC2CCCC2)c(C(=O)NCCc2n[nH]c(=O)[nH]2)c1	-2.098	11.2
O=C(O)C(F)(F)F.c1ccc(CN2Cc3nccn3CC(Cn3cccn3)C2)nc1 (stereo not given)	0.3853	-3.744
O=C(O)C(F)(F)F.O=C(O)C(F)(F)F.[H][C@]12CCC(=O)N(CC3CCOCC3)[C@@]1([H])CCN2Cc1ccccn1	1.421	8.743
CC(C)c1cc(C(=O)NCCN2CCCCC2CO)on1 (stereo not given)	-17.18 & -0.9218	11.93
NC(=O)c1nc2c(s1)CCN(Cc1ccccc1)CC2.O=C(O)C(F)(F)F	2.629 & -28.21	-10.71
Cl.Clc1ccccc1CN1CCc2nc(C3CCCCN3)ncc2C1 (stereo not given)	20.3	-4.798
O=C(NCC1CC1)c1cc(C2CC2)nc2onc(C3CCCNC3)c12 (stereo not given)	27.9	5.854
COCCC(=O)N1CCC2(CCN(Cc3ccc(C)cc3)CC2)C1.O=C(O)C(F)(F)F	-15.52	-5.438 & 14.22
CN(C)CC(=O)N1CCC2(CCc3ccc(-c4ccncc4)cc32)CC1.O=C(O)C(F)(F)F.O=C(O)C(F)(F)F	15.65 & 20.62	23.63
CC1(C)CNC(=O)CN(C(=O)Cc2ccccc2)C1	-11.14	-11.82
O=C(Cc1cc2c(cc1Cl)OCCO2)N1CC[C@H](CO)[C@H](O)C1	2.967	0.7992
CSc1nccn1-c1cccc(C(=O)NCCN2CCS(=O)(=O)CC2)c1	-24.61	-22.53
O=C(O)C(F)(F)F.O=C(O)C(F)(F)F.[H][C@]12C[C@@H](Cn3cncn3)N(C)[C@@]1([H])CCN(Cc1cccc(C#N)c1)C2	-23.51	-25.52 & -8.959
CC(C)NC(=O)CC1COC2(CCN(Cc3cccnc3)CC2)C1.O=C(O)C(F)(F)F.O=C(O)C(F)(F)F (stereo not given)	5.194	-4.649 & -2.737
Cc1nc(CN2CCCCC2Cn2cccn2)nc2ccccc12 (stereo not given)	21.72 & 5.101	-3.813
Cc1cccc2nc(C(=O)N3CCC(Nc4cccnn4)CC3)cn12	-17.52	-9.527
COCCNS(=O)(=O)c1cccc2c1CN(C(=O)c1cc(C)on1)CC2	12.02 & -1.045	-4.006
CCCc1nc(C)c(C(=O)NCCN2CCN(CC)CC2)s1	-5.435	17.75
O=C(O)C(F)(F)F.[H][C@@]12CCCO[C@]1([H])[C@H](OCc1cccnc1)CN2C(=O)c1cnccn1	-29.68	-29.97
CC(C)n1ccnc1CN1CCCC1c1cccc(-n2ccnc2)n1 (stereo not given)	7.037	7.923
Cc1cc(NCCSc2nccn2C)n2ncnc2n1	-14.93	-23.04 & -13.55
NC(=O)C1CCCN1Cc1cccc(NC(=O)c2cc(Cl)cc(Cl)c2)c1 (stereo not given)	27.78	15.58 & 6.332
CCC[C@H]1CN(S(=O)(=O)c2ccc(-c3c(C)noc3C)s2)C[C@@H]1N	30.59	24.19
O=C(CN1CC(c2nc(-c3ccco3)no2)C1)NCc1ccc(F)cc1.O=C(O)C(=O)O	38.86	17.57
O=C(O)C(F)(F)F.O=C(O)C(F)(F)F.O=C(c1cccnc1)N1CCn2cc(CN3CCCC3)nc2C1	-3.639	4.03 & 3.879
Cc1ccc(C)c(CS(=O)(=O)CC(=O)NCCCOC(C)C)c1	1.124	-4.289
CC(O)CN1CCN(C(=O)c2cn(-c3ccccc3Cl)nn2)CC1 (stereo not given)	34.68	7.575
COCCN1CC[C@]2(CN(Cc3cccnc3)C[C@H]2C)C1=O.O=C(O)C(F)(F)F.O=C(O)C(F)(F)F	-21.43	-2.079 & 21.24
Cc1ccc(CCNc2nccc(-c3cc(C(=O)O)ccn3)n2)o1	23.94	5.399

The first 6 entries again:

structure	Mtb glucose medium	Mtb cholesterol medium
CC1CC2(CCN(C(=O)c3c[nH]cn3)CC2)c2ccccc21 (stereo not given)	-9.034	-12.06
Cc1cnc2c(c1NCc1ccc3c(c1)OCO3)c(=O)n(C)c(=O)n2C	-55.24	-50.05
CC(c1nc(C2CC2)no1)N1CCN(Cc2cccc(C#N)c2)CC1 (stereo not given)	0.9517	-6.069
CC1CN(C)c2ccccc2CN1C(=O)c1cnsn1 (stereo not given)	-12.8	-1.594 & -7.73
NC(=O)C1(CCCc2ccncc2)CCCN1 (stereo not given)	-3.65	-6.88
COCCN(Cc1cnn(C)c1)c1nc(C)nc2sccc12	-15.18 & 1.154	-6.721 & 2.547